Measured values as given in paper PMC7819943, “Rice protein-binding microarrays: a tool to detect cis-acting elements near promoter regions in rice”.
The other results are listed elsewhere or left out.

Sequences of proteins named here, by UniProt entry; tags and fusion partners are left off.
UniProt Q0JBA9, entry or part of it: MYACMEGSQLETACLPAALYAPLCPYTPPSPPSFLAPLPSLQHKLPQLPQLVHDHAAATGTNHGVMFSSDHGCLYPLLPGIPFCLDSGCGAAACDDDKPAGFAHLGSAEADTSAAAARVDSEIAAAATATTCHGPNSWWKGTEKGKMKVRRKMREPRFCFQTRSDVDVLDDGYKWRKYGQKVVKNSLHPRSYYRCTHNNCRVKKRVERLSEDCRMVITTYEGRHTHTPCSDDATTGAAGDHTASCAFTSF

Each sequence was assayed against OsWRKY34 (Oryza sativa, UniProt Q0JBA9 1-250) (assay: protein-binding microarray (RPBM); PBS, 2% BSA, 51.3 ng/ul salmon testes DNA, 50 uM zinc acetate, 200 nM TF, 25 C, 1 h; high values mean tight binding). Conditions: protein: recombinant; tags: N-terminal polyhistidine and DsRed monomer fusion (pET32a); label: CyDye5-dUTP incorporated in the synthesized complementary strand; 3' TTTTT single-stranded linker to array surface; dsDNA, one strand shown.
Procedure, shortened: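 Binding signal here means per-feature fluorescence intensity in arbitrary units. The values were read on an Axon 4000B scanner after a custom Agilent array, double-stranded by primer extension with Cy5-dUTP, was incubated with 200 nM protein at 25 °C for 1 h in PBS with 2% BSA, salmon testes DNA and 50 µM zinc acetate, then washed. The proteins were transcription factors with an N-terminal polyhistidine tag and DsRed, expressed in E. coli BL21-CodonPlus and purified on Ni–NTA.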

Row | Sequence | binding signal
1 | AGACTTTCTAGCATTACCCACATTCATACAAATGAATCTACGGAGTCACCTAGTGCAG | 8580 fluorescence intensity (a.u.)
2 | ATGGTCAAACATGTGCTAAAAAGTCAACGGTGTCAAACATCGGAGTCACCTAGTGCAG | 17700 fluorescence intensity (a.u.)
3 | TCCTAGGTACGCCGTGCGCGGCTGGGCAACACTCACTGACCGGAGTCACCTAGTGCAG | 8440 fluorescence intensity (a.u.)
4 | TCTTCCCATTTTCCACCGAGGAACGTGCCTGGGACGACGACGGAGTCACCTAGTGCAG | 8160 fluorescence intensity (a.u.)
5 | ATTTCACGGCTTTTCCCCGTGCACCGTCCATATTTTTGTTCGGAGTCACCTAGTGCAG | 10100 fluorescence intensity (a.u.)
6 | GGACCACCCTGCCGCGGACATCACCCATCTCGTCATCTCCCGGAGTCACCTAGTGCAG | 9570 fluorescence intensity (a.u.)
7 | GCTTATGCTATTGTTGCTTCACCGCCGCTGCCTCCTCTTGCGGAGTCACCTAGTGCAG | 8810 fluorescence intensity (a.u.)
8 | CACATACATACATACAGACATACTACTATCAGCATGTACACGGAGTCACCTAGTGCAG | 10900 fluorescence intensity (a.u.)
9 | AATTGTCCAGGCACTCATCAGGCATTTCAGCTAACAAGCTCGGAGTCACCTAGTGCAG | 8510 fluorescence intensity (a.u.)
10 | CGTATTGCACAGAGGGTGTCATCTTCCATTTGCCTTGTAACGGAGTCACCTAGTGCAG | 8520 fluorescence intensity (a.u.)
11 | CCGCCTCGGCTCGATCCGCCCATATATTTCCCACGCATTCCGGAGTCACCTAGTGCAG | 10000 fluorescence intensity (a.u.)
12 | CTCATCGTTCGCGTGCCCTTGTCGCTCGCGGCGACGACACCGGAGTCACCTAGTGCAG | 8960 fluorescence intensity (a.u.)
13 | ACACAAAATTGATGATGCACCTACCGGTCCGGTAACAATACGGAGTCACCTAGTGCAG | 8680 fluorescence intensity (a.u.)
14 | TTTCGTTTTGCTTGCTGTGGGCAGGGGCAGGGGAGGCGGTCGGAGTCACCTAGTGCAG | 15700 fluorescence intensity (a.u.)
15 | CCCACCATCCTCATCACCACCACCACCACCGCCGCCGCCCCGGAGTCACCTAGTGCAG | 8750 fluorescence intensity (a.u.)
16 | CTCTCTCAAACCTTTGGCATCTTGGACACTATATATATCCCGGAGTCACCTAGTGCAG | 8780 fluorescence intensity (a.u.)
17 | CTGCATCTGCATATGACCTCTGACTTTCGCCTCTCGCGCCCGGAGTCACCTAGTGCAG | 8620 fluorescence intensity (a.u.)
18 | GAAAAGATGACCCCATATTCTCGTGTATTCTTTGACACTTCGGAGTCACCTAGTGCAG | 9540 fluorescence intensity (a.u.)
19 | TCGACCTCCACTCCTCTCCACCCATCGCGGCCATAAGACGCGGAGTCACCTAGTGCAG | 8590 fluorescence intensity (a.u.)
20 | GGTATTATATTGTTCTGACGATCTTGGTGTGGCTTATGTCCGGAGTCACCTAGTGCAG | 8820 fluorescence intensity (a.u.)
21 | CCCAGAGCTTCGCCTCGACCTCGCCTTCGCCTTCGTCGCTCGGAGTCACCTAGTGCAG | 8390 fluorescence intensity (a.u.)

Row | Sequence | binding signal
22 | ATTGATGTTTTGTGGCTGTGTGGTGTCGAGAAATGAAATTCGGAGTCACCTAGTGCAG | 9330 fluorescence intensity (a.u.)
23 | TGCGCTCCACTTCACTATATACTCCACTTGTGTTGCTACACGGAGTCACCTAGTGCAG | 10500 fluorescence intensity (a.u.)
24 | TTGCAATTGCAACATGCAGCGGCGAAGACGATCGATCACTCGGAGTCACCTAGTGCAG | 8280 fluorescence intensity (a.u.)
25 | TGACTTTTTAGTACGTGTTTGATCATTCGTCTTATTCAAACGGAGTCACCTAGTGCAG | 10800 fluorescence intensity (a.u.)
26 | ATCCGCCTCGCCCCATTCTCCATCGTTTCGTCTCCTCTCTCGGAGTCACCTAGTGCAG | 10100 fluorescence intensity (a.u.)
27 | TCTCTCTCTCTCTCTCTCCTTATTTTGGCATTGTGTCGTGCGGAGTCACCTAGTGCAG | 9620 fluorescence intensity (a.u.)
28 | ATATTCTGGTGTTTTTGTGGCAACCCTGTTGTAAATTGGTCGGAGTCACCTAGTGCAG | 10200 fluorescence intensity (a.u.)
29 | TGTTCGTATTTTAAACTCTCTTTTTTTTTCAGTGGTAGATCGGAGTCACCTAGTGCAG | 9700 fluorescence intensity (a.u.)
30 | TCCCGCGCTGCCACCTCCTCTCATCACCTTGAGCCGACTCCGGAGTCACCTAGTGCAG | 8430 fluorescence intensity (a.u.)
31 | ATGTGTTGGTACTGGTTTTAGGTTTGAGTGACGCGATCCACGGAGTCACCTAGTGCAG | 8110 fluorescence intensity (a.u.)
32 | TAAATGTCACTGTTAACTTTTAGTCACACATTTGATCATTCGGAGTCACCTAGTGCAG | 9770 fluorescence intensity (a.u.)
33 | TTTCCTATTTTCGCTTTAGGTGCCAAATTTAGGGTTTTATCGGAGTCACCTAGTGCAG | 8970 fluorescence intensity (a.u.)
34 | TAGTATGAGTGAGTGCTGCCTTTTGCCTTTTTCGAGGTTACGGAGTCACCTAGTGCAG | 8780 fluorescence intensity (a.u.)
35 | TTGCAGCTGTCCTCTCTACCTTAACCCTTTGACCAGTGCTCGGAGTCACCTAGTGCAG | 9130 fluorescence intensity (a.u.)
36 | ACGCTTGCAGTGTTTACAGTTTGTTTGTTTTTTGCCGAGACGGAGTCACCTAGTGCAG | 9640 fluorescence intensity (a.u.)
37 | TCATCGGCCCCAGACCATTTGGCCATCTATACTTATCTGGCGGAGTCACCTAGTGCAG | 8500 fluorescence intensity (a.u.)
38 | GTAATCAAGCAATGTTGTTTTCTTCTACATTTCAAATCCACGGAGTCACCTAGTGCAG | 8520 fluorescence intensity (a.u.)
39 | CGTCCACGTCCATCTCCGCCGCTGACAGCACCAGCTCTTCCGGAGTCACCTAGTGCAG | 10100 fluorescence intensity (a.u.)
40 | ATCTCATCTCACCCTCTCCTCGGCCGCGTAAATCCCATAACGGAGTCACCTAGTGCAG | 9740 fluorescence intensity (a.u.)
41 | GTCTTTCCTTATCCGGAACTTCATCTATATCCGAGGTCAGCGGAGTCACCTAGTGCAG | 8970 fluorescence intensity (a.u.)
42 | ATCTGGTTTGGTTGAATCGATCGAGAGGTGGGGAGGGGAGCGGAGTCACCTAGTGCAG | 13900 fluorescence intensity (a.u.)

Rewritten as tab-separated lines: entries from further up
Row	Sequence	binding signal
33	TTTCCTATTTTCGCTTTAGGTGCCAAATTTAGGGTTTTATCGGAGTCACCTAGTGCAG	8970 fluorescence intensity (a.u.)
39	CGTCCACGTCCATCTCCGCCGCTGACAGCACCAGCTCTTCCGGAGTCACCTAGTGCAG	10100 fluorescence intensity (a.u.)
40	ATCTCATCTCACCCTCTCCTCGGCCGCGTAAATCCCATAACGGAGTCACCTAGTGCAG	9740 fluorescence intensity (a.u.)
